Experimental data as given in patent US20260209346A1 (LTZ THERAPEUTICS, published 2026).
No constants are given. Whether binding was seen depends on the method and setting. Some binding calls cover weakened binding; strength is not graded here.

Legend:
[1] = target: CD79b endogenously expressed on the cell surface (malignant B cell lines, normal B cells in PBMC, CLL patients' B lymphocytes) (human) (UniProt P40259); experiment: flow cytometry on CLL patients' PBMC
[2] = target: CD79b endogenously expressed on the cell surface (malignant B cell lines, normal B cells in PBMC, CLL patients' B lymphocytes) (human) (UniProt P40259); experiment: flow cytometry on malignant B cell lines
[3] = target: CD79b endogenously expressed on the cell surface (malignant B cell lines, normal B cells in PBMC, CLL patients' B lymphocytes) (human) (UniProt P40259); experiment: flow cytometry on CD19+ B cells in PBMC of 4 donors
[4] = target: T1, human CD79b recombinant protein (human, UniProt P40259 29-159); experiment: ELISA on recombinant human CD79b ECD; A 450nm
T1 construct: also called human CD79b ECD antigen; recombinant human CD79b ECD
T1 sequence: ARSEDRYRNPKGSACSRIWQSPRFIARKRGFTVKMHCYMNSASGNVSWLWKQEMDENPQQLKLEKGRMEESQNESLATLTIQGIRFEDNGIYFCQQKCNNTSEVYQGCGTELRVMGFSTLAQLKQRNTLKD

[5] = target: CD79b long isoform (wild type, 229 amino acids) expressed on Nalm-6 cells (Homo sapiens (Human)) (UniProt P40259); experiment: flow cytometry on Nalm-6 cells electroporated with the long isoform
[6] = target: CD79b short isoform (125 amino acids, deletion of exon 3) expressed on Nalm-6 cells (Homo sapiens (Human)) (UniProt P40259); experiment: flow cytometry on Nalm-6 cells electroporated with the short isoform
[7] = target: CD79b endogenously expressed on the cell surface (malignant B cell lines, normal B cells in PBMC, CLL patients' B lymphocytes) (human) (UniProt P40259); experiment: flow cytometry histogram, untransfected NALM6 cells; Anti-CD79b-PE
[8] = target: T1, human CD79b recombinant protein; experiment: ELISA; human CD79b recombinant protein coated at 1 ug/ml; anti-human IgG HRP; OD 450 nm
[9] = target: CD79b endogenously expressed on the cell surface (malignant B cell lines, normal B cells in PBMC, CLL patients' B lymphocytes) (human) (UniProt P40259); experiment: flow cytometry on PBMC of CLL Donor 5716 (B lymphocytes); PE goat anti-human IgG Fc; MFI PE
[10] = target: CD79b endogenously expressed on the cell surface (malignant B cell lines, normal B cells in PBMC, CLL patients' B lymphocytes) (human) (UniProt P40259); experiment: flow cytometry on PBMC of CLL Donor 0255 (B lymphocytes); PE goat anti-human IgG Fc; MFI PE
[11] = target: T2, cynomolgus CD79b recombinant protein (cynomolgus); experiment: ELISA; cynomolgus CD79b recombinant protein coated at 1 ug/ml; anti-human IgG HRP; OD 450 nm
T2 chain: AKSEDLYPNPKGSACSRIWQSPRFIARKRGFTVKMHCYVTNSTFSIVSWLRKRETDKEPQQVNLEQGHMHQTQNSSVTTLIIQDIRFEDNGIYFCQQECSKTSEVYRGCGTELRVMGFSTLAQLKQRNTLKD
Method: Binding affinities of anti-CD79b antibodies to human and cynomolgus CD79b recombinant proteins were tested by ELISA. 1 ug/ml (in PBS buffer) of human or cynomolgus CD79b recombinant proteins were coated on an ELISA plate overnight. ELISA plates were washed and blocked with blocking buffer (PBS+1% BSA) followed by incubation with serially diluted anti-CD79b primary antibodies. Anti-CD79b antibody binding was quantified using an anti-human IgG HRP secondary antibody (Biolegend Catalog #410902) and HRP substrate.

[12] = target: CD79b long isoform (wild type, 229 amino acids) expressed on Nalm-6 cells (Homo sapiens (Human)) (UniProt P40259); experiment: flow cytometry histogram, NALM6 cells electroporated with the CD79b long isoform plasmid; Anti-CD79b-PE
[13] = target: CD79b short isoform (125 amino acids, deletion of exon 3) expressed on Nalm-6 cells (Homo sapiens (Human)) (UniProt P40259); experiment: flow cytometry histogram, NALM6 cells electroporated with the CD79b short isoform plasmid; Anti-CD79b-PE
[14] = target: CD79b endogenously expressed on the cell surface (malignant B cell lines, normal B cells in PBMC, CLL patients' B lymphocytes) (human) (UniProt P40259); experiment: flow cytometry on a cell line expressing endogenous CD79b (not named on the sheet or in the text); MFI (PE)

Measured: binding

B1: ch23D8 (antibody, human IgG1, kappa, V domains shown)
VH: QSLEESGGGLVTPGGTLTLTCTVSGLSLSSNAINWVRQAPGKGLEWIGMIYSGGRIEYASWAKGRFTISKTSTTVDLKITSPTTEDTATYFCAKGMSPSAHSSDIWGPGTLVTVSA
VL: AYDMTQTPASVEVAVGGTVTIKCQASQSISDNLSWYQQKPGQPPKLLIYDASDLASGVPSRFSGSGSGTEFTLTISDLEPADAATYYCQQDWISSNVDNTFGGGTEVVVKR
notes: Rabbit/human chimeric IgG1 kappa; also called chimeric 23D8
binds: all assays above
